# Measurements: PubChem BioAssay AID445 (National Center for Advancing Translational Sciences (NCATS), 2006)
# This is one part of the list. Further columns of the screen follow, without active or inactive calls. The list favours compounds with an active or inconclusive main result. The note in brackets gives the kind of curve behind each potency; many fits are weak.
# Assay: IkB Signaling
# Conditions: ABC-DLBCL IkBa-CBG/CBR dual luciferase ratio (green luciferase fused to IkBa over red control in OCI-Ly3 lymphoma cells), 4 h
# Outline: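 Curves were fitted separately to fusion (green), unfused (red) and ratio luminescence, then classed by r2, magnitude and activity. Cells: OCI-Ly3, 4 h compound plus doxycycline at 37C; 10 uM MG-132 defined full response.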
# [1] = measured here: IkB-luc green channel
# [2] = measured here: control luc red channel
# [3] = measured here: control luc red channel unless noted
smiles,measurement,setting,value
CC(=O)Nc1ccc(S(=O)(=O)Nc2ccc3c(c2)n(C)c(=O)n3C)c(C)c1,AC50,[1],"20 µM [rising, partial curve]"
same,AC50,[2],"1.58 µM [rising, partial curve]"
CCc1ccc(C2C(C#N)=C(N)SC(N)=C2C#N)cc1,AC50,[3],"15.8 µM [falling, partial curve]"
N#CCSc1n[nH]c2nc3c(c(=O)n12)C1(CCCC1)Cc1ccccc1-3,AC50,[3],"25.1 µM [falling, partial curve]"
CCc1ccc2oc(C(=O)Nc3nc(-c4ccccc4)ns3)c(C)c2c1,AC50,[3],"39.8 µM [falling, single point]"
O=C(Nc1nc(-c2nc3ccccc3s2)cs1)C1COc2ccccc2O1 (centres undefined),AC50,[3],"6.31 µM [falling, full curve]"
Cc1c(C(=O)N(C)C)sc2c1c(=O)n(-c1ccc(F)cc1)c(=O)n2CC(=O)N(C)c1ccccc1,AC50,[3],"0.0316 µM [rising, full curve, poor fit]"
Cc1ccc(C)c(NC(=O)Cn2c(=O)oc3cc(S(=O)(=O)NCc4ccccc4)ccc32)c1,AC50,[3],"25.1 µM [falling, single point]"
Cc1cc2oc(C(=O)Nc3ccc(S(=O)(=O)Nc4onc(C)c4C)cc3)cc(=O)c2cc1C,AC50,[3],"12.6 µM [falling, partial curve]"
CCOc1ccc(-n2c(SC(C)C(=O)OC)nc3c([nH]c4ccccc43)c2=O)cc1 (centres undefined),AC50,[3],"25.1 µM [rising, single point]"
Cc1ccccc1C(=O)Nc1sc2c(c1C(=O)N1CCC(C)CC1)CCCC2,AC50,[3],"12.6 µM [falling, single point]"
CCN(CCCNC(=O)c1cc2c(=O)[nH]c3ccc(C)cc3c2s1)Cc1ccccc1,AC50,[3],"31.6 µM [falling, partial curve]"
Cc1ccc(NC(=O)c2ccc(S(=O)(=O)N3CCCC3)cc2)cc1,AC50,[3],"15.8 µM [falling, partial curve]"
CC(C)CCNC(=O)c1cccc(-n2cnc3cccnc32)c1,AC50,[3],"39.8 µM [falling, single point]"
Cc1ccc(C(=O)COC(=O)c2cccc(NC(=O)c3ccc(Br)cc3)c2)cc1,AC50,[3],"7.94 µM [falling, partial curve]"
CCCn1nc(NC(=O)c2cccs2)c2cc3cc(OC)ccc3nc21,AC50,[3],"7.94 µM [falling, full curve]"
COc1cccc(CNC(=O)Cn2c(SCC(=O)Nc3ccc(F)cc3)nc3ccccc32)c1,AC50,[1],"0.0158 µM [rising, full curve, poor fit]"
same,AC50,[2],"31.6 µM [falling, single point]"
Cc1ccc2c(c1)-c1c(c(C(=O)NCCc3ccccc3)nn1C)CS2,AC50,[3],"12.6 µM [falling, partial curve]"
CCCN(C(=O)Cc1c(C(=O)O)[nH]c2ccc(Cl)cc12)c1ccc(OCC)cc1,AC50,[3],"12.6 µM [falling, partial curve]"
CCOCCCNC(=O)c1[nH]c2cc(OC)ccc2c1Sc1ccccc1,AC50,[3],"7.94 µM [falling, partial curve]"
Cc1cccc(N(CC(=O)Nc2cccc(Cl)c2C)S(C)(=O)=O)c1C,AC50,[3],"25.1 µM [falling, partial curve]"
COc1ccccc1C(=O)Nc1ccccc1SCc1cc(=O)c2ccccc2[nH]1,AC50,[3],"0.158 µM [falling, full curve]"
Cc1nnc(SCC(=O)NCc2ccc(N(C)C)cc2)c2nn(-c3ccccc3)c(C)c12,AC50,[3],"15.8 µM [falling, partial curve]"
COc1cccc(C(c2c(O)cc(C)n(Cc3ccco3)c2=O)N2CCC(C)CC2)c1 (centres undefined),AC50,[3],"0.316 µM [falling, full curve, poor fit]"
COc1ccc(-c2nc(C)c(CCNC(=O)c3cc(OC)c(OC)c(OC)c3)s2)cc1OC,AC50,[3],"25.1 µM [falling, single point]"
O=C(NCc1ccccc1)c1cc2ccccc2o1,AC50,[3],"0.501 µM [falling, partial curve, poor fit]"
Cc1ccc2c(c1)c(=O)c(C(=O)c1ccncc1)cn2CC(=O)Nc1ccc(C(C)C)cc1,AC50,[3],"1.58 µM [falling, full curve, poor fit]"
Cc1ccc(N2CC(NC(=O)c3ccc(Br)o3)CC2=O)cc1C (centres undefined),AC50,[3],"7.94 µM [rising, single point]"
O=C(NC1=NCCS1)C1COc2ccccc2O1 (centres undefined),AC50,[3],"12.6 µM [falling, partial curve]"
Cc1nnc(N2CCN(c3ccccc3F)CC2)c2c1nnn2Cc1ccccc1Cl,AC50,[3],"0.251 µM [falling, full curve, poor fit]"
CCOc1ccc(NCc2cccn2-c2nnc(N3CCC(C(=O)NCc4ccc(C)cc4)CC3)s2)cc1,AC50,[3],"25.1 µM [falling, partial curve]"
COc1ccc2nc3oc(C(=O)N(C)c4ccc(Cl)cc4)cc3cc2c1,AC50,[3],"31.6 µM [falling, single point]"
O=C(Nc1ccc(N2CCCC2)cc1)c1cccc(F)c1,AC50,[3],"3.98 µM [falling, full curve]"
O=C(NCCc1ccccc1)NC1CCCCC1,AC50,[3],"20 µM [falling, single point]"
CCCN1C(=O)CN(C2CCCCC2)C(=O)C1c1ccc(OC)c(OC)c1 (centres undefined),AC50,[3],"3.16 µM [rising, full curve, poor fit]"
COc1ccc(NC(=O)Cn2c(=O)n(CCC(=O)NCCc3ccc(OC)c(OC)c3)c(=O)c3ccccc32)cc1Cl,AC50,[3],"1 µM [rising, partial curve, poor fit]"
O=C(C1CCN(S(=O)(=O)c2ccccc2)CC1)N(CCc1ccccc1)Cc1ccco1,AC50,[3],"25.1 µM [falling, partial curve]"
Cc1cccc(-n2ncc(C(=O)N3CCN(C(=O)c4ccco4)CC3)c2C2CCN(C(=O)OC(C)(C)C)CC2)c1,AC50,[3],"0.0398 µM [falling, full curve, poor fit]"
Cc1ccc2c(=O)cc(C(=O)Nc3ccc(S(=O)(=O)Nc4onc(C)c4C)cc3)oc2c1,AC50,[3],"12.6 µM [falling, partial curve]"
COc1cccc([C@@H]2Nc3ccc(C(=O)O)cc3[C@@H]3C=CC[C@@H]32)c1OC,AC50,[3],"25.1 µM [falling, partial curve, poor fit]"
Cc1cc(C)c2[nH]c(=O)c(CN(Cc3nnnn3C3CCCC3)C3CCCCC3)cc2c1,AC50,[3],"12.6 µM [falling, partial curve]"
CCOc1ccc(S(=O)(=O)n2cnc3cc(C)c(C)cc32)cc1,AC50,[3],"31.6 µM [falling, partial curve]"
Cc1ccc(S(=O)(=O)c2cc3c(=O)n4ccccc4nc3n(Cc3ccco3)c2=N)cc1C,AC50,[1],"10 µM [rising, partial curve]"
same,AC50,[2],"10 µM [falling, partial curve]"
COc1ccc(C)cc1NC(=O)C1CCCN(S(=O)(=O)c2ccc3c(c2)oc(=O)n3C)C1 (centres undefined),AC50,[3],"20 µM [falling, single point]"
CCCn1c(NC(=O)c2ccc(Cl)c(S(=O)(=O)N3CCCC3)c2)nc2ccccc21,AC50,[3],"1.58 µM [falling, partial curve]"
CC(=O)Nc1ccc(S(=O)(=O)N2CCN(c3ccccc3)CC2)cc1,AC50,[3],"15.8 µM [falling, partial curve]"
Cc1ccc(SCc2nc(-c3ccc(C(=O)NCc4ccccc4Cl)cc3)oc2C)cc1,AC50,[3],"3.98 µM [falling, full curve]"
Cc1ccc2c(c1)-c1c(cnn1CC(=O)N1CCCN(Cc3ccccc3F)C1)CO2,AC50,[3],"15.8 µM [falling, partial curve]"
COc1cccc(CNC(=O)CN(c2ccc(C(C)C)cc2)S(=O)(=O)c2c(C)n[nH]c2C)c1,AC50,[3],"12.6 µM [falling, partial curve]"
COc1ccc(CNc2oc(COc3cccc(C)c3)nc2C#N)cc1,AC50,[3],"25.1 µM [falling, single point]"
CCCc1ccc(OCc2ccc(C(=O)N3CCN(c4ccccn4)CC3)o2)c(OC)c1,AC50,[3],"7.94 µM [falling, full curve]"
COc1cccc2cc(-c3nnc(-c4ccc(Cl)cc4)o3)c(=O)oc12,AC50,[3],"7.94 µM [falling, partial curve]"
CCc1nn(CC(=O)N2CCN(c3cccc(C(F)(F)F)c3)CC2)c(=O)c2cc3occc3n12,AC50,[3],"15.8 µM [falling, single point]"
CCN(CC)S(=O)(=O)c1cccc(C(=O)Nc2ccc(Cl)cn2)c1,AC50,[3],"12.6 µM [falling, partial curve]"
CCOC(=O)Cc1csc(NC(=O)c2ccc(Br)s2)n1,AC50,[3],"10 µM [falling, partial curve]"
COc1ccc2c(CNCc3cccs3)c(C(=O)O)n(Cc3ccc(F)cc3Cl)c2c1,AC50,[3],"12.6 µM [falling, partial curve]"
CC(C)CCOc1ccc(Oc2nc(N(C)C)nc(N(C)C)n2)nn1,AC50,[3],"31.6 µM [falling, single point]"
CCCCNS(=O)(=O)c1ccc2nc(SCC(=O)Nc3sccc3C#N)[nH]c2c1,AC50,[3],"25.1 µM [falling, partial curve]"
COc1ccc(NC(=O)CN(C)S(=O)(=O)c2ccc3c(c2)CCCN3C(C)=O)cc1Cl,AC50,[3],"0.0794 µM [falling, full curve, poor fit]"
Cc1cc(Nc2ccc(C(C)C)cc2)nc(-n2nc(C)cc2C)n1,AC50,[3],"39.8 µM [falling, single point]"
CC(C)Oc1cccc(C(=O)Nc2ccc(-c3nc4cc(Cl)cc(Cl)c4o3)cc2)c1,AC50,[3],"7.94 µM [falling, partial curve]"
Cc1cccc2sc(N(Cc3cccnc3)C(=O)Cc3ccccc3)nc12,AC50,[3],"39.8 µM [falling, single point]"

# Retrieved one by one from above:
smiles,measurement,setting,value
Cc1ccc(S(=O)(=O)c2cc3c(=O)n4ccccc4nc3n(Cc3ccco3)c2=N)cc1C,AC50,[2],"10 µM [falling, partial curve]"
Cc1cccc(N(CC(=O)Nc2cccc(Cl)c2C)S(C)(=O)=O)c1C,AC50,[3],"25.1 µM [falling, partial curve]"
CC(C)CCNC(=O)c1cccc(-n2cnc3cccnc32)c1,AC50,[3],"39.8 µM [falling, single point]"
Cc1ccc2c(c1)-c1c(cnn1CC(=O)N1CCCN(Cc3ccccc3F)C1)CO2,AC50,[3],"15.8 µM [falling, partial curve]"
Cc1ccc2c(c1)c(=O)c(C(=O)c1ccncc1)cn2CC(=O)Nc1ccc(C(C)C)cc1,AC50,[3],"1.58 µM [falling, full curve, poor fit]"
